Assay results reported in patent US20230057461A1 (US Dept. of Health and Human Services, published 2023).
No constants are given. Whether binding was seen depends on the method and setting. Binding seen in cells or lysates may run through a third protein. Some binding calls cover weakened binding; strength is not graded here.

Protein sequences, listed by entry. Tags and fused reporters are not part of them. Lines headed by an entry give the natural chain unless they say otherwise; changes in a name come on top. Chains listed by the source or under a name are the forms on record and can include a tag or linker.
UniProt P61586: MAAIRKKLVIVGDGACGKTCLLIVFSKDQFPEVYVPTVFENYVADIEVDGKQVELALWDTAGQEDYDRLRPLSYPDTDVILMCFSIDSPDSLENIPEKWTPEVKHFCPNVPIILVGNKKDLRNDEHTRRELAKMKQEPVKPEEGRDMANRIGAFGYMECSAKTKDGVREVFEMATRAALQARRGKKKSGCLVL
nucleotide-free RhoA mutant that exhibits high affinity for GEFs (P61586, form named): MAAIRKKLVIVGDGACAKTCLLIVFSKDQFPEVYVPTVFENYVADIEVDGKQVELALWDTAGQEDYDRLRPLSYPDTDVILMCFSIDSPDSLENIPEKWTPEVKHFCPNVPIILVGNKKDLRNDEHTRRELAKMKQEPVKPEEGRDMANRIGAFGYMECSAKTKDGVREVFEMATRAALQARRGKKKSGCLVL

Target: nucleotide-free RhoA mutant that exhibits high affinity for GEFs (UniProt P61586)
Assay: pull-down of active NET1 from lysates of PMO-treated MDA-MB-231 cells

- binding: binds
B1: NET1 protein (endogenous, MDA-MB-231 cells) (enzyme, human, UniProt Q7Z628 1-596, looked up)
chain: MEPELAAQKQPRPRRRSRRASGLSTEGATGPSADTSGSELDGRCSLRRGSSFTFLTPGPNWDFTLKRKRREKDDDVVSLSSLDLKEPSNKRVRPLARVTSLANLISPVRNGAVRRFGQTIQSFTLRGDHRSPASAQKFSSRSTVPTPAKRRSSALWSEMLDITMKESLTTREIRRQEAIYEMSRGEQDLIEDLKLARKAYHDPMLKLSIMSEEELTHIFGDLDSYIPLHEDLLTRIGEATKPDGTVEQIGHILVSWLPRLNAYRGYCSNQLAAKALLDQKKQDPRVQDFLQRCLESPFSRKLDLWSFLDIPRSRLVKYPLLLKEILKHTPKEHPDVQLLEDAILIIQGVLSDINLKKGESECQYYIDKLEYLDEKQRDPRIEASKVLLCHGELRSKSGHKLYIFLFQDILVLTRPVTRNERHSYQVYRQPIPVQELVLEDLQDGDVRMGGSFRGAFSNSEKAKNIFRIRFHDPSPAQSHTLQANDVFHKQQWFNCIRAAIAPFQSAGSPPELQGLPELHEECEGNHPSARKLTAQRRASTVSSVTQVEVDENAYRCGSGMQMAEDSKSLKTHQTQPGIRRARDKALSGGKRKETLV
